Laboratory results taken from patent US11370822B2, “Self-assembling peptide for activating human mast cells” (The Governors of the University of Alberta, priority 2017, dated 2022).
At least one peptide structure holds a part that was inferred or is arguable (an end, a ring closure or a residue).

Assays:
[1] = AFM morphology of self-assembling peptide nanofiber matrices; type: physicochemical; settings: pure peptide
Experimental: (§1) (RADA)4 (SEQ ID NO: 1) and (RADA)4-GG-(PAMP-12) (SEQ ID NO:2) stock solutions (1.0% w/v) were prepared by dissolving peptide powder in syringe filtered (0.2 μm) Milli-Q water. Peptide stock solutions were sonicated for 30 min to avoid bulk aggregates and reduce viscosity. (RADA)4 peptide solutions with different proportion of (RADA)4-GG-(PAMP-12) (SEQ ID NO: 2) (0, 2.5, 5, 10, 20, 40, 80, 100% w/w) were mixed with 1x PBS (pH 7.4) at a ratio of 1:1 (v/v) to get hydrogel matrices with peptide concentration of 0.5% w/v. Fifty μl of the mixture was placed at the bottom of a 96-well plate or well insert, overnight at 4° C. and washed with HEPES buffer (10 mM, with 0.4% BSA, pH 7.4) or PBS for 3 times.
The morphology of the hydrogel matrices were measured using Dimension 3100 Nanoman Atomic Force Microscopy (AFM, Veeco Metrology, LLC) with tapping mode, tip radius of 8 nm. Matrix solutions used in AFM studies were prepared by 500 times diluted with Mili-Q water. A drop (5 ul) of each solution was placed on freshly cleaved mica substrate then rise with water. The surfaces were air dried overnight at room temperature before being imaged.

LAD2 cells [2] = assay: β-hexosaminidase (β-hex) release assay, peptide solutions; type: cell-based, human; settings: various concentrations, 30 min, compared with PBS
Experimental: LAD2 (Laboratory of Allergic Diseases 2) human mast cells were incubated in StemPro-34 SFM medium (Life Technologies, Rockville, Md.) supplemented with 2 mM L-glutamine, 100 I/ml penicillin, 50 μg/ml streptomycin, 100 ng/ml recombinant human SCF (Peprotech, Rocky Hill, N.J.). Cells were maintained at 0.1×10^6 cells/ml at 37° C. and 5% CO2. Cell suspensions were isolated via centrifugation (200 g, 5 min, at room temperature) and media was replaced every 3-7 days. For each well, 0.25×10^5 LAD2 cells were washed and resuspended in 90 μl HEPES buffer (10 mM, with 0.4% BSA, pH 7.4), and activated by adding 10 μl peptide solutions (PAMP-12 […], (RADA)4 (SEQ ID NO: 1) and (RADA)4-GG-(PAMP-12) (SEQ ID NO: 2)) in PBS (1×, pH 7.4) for 30 min at 37° C., the final concentrations of peptide are 0, 0.01, 0.1, 1, 10, 20, 50, 100 μM respectively. β-hex release was quantified through analysis of the hydrolysis of p-nitrophenyl N-acetyl-b-D-glucosamide (Sigma Aldrich, Oakville, ON, Canada) in 0.1 M sodium citrate buffer (pH 4.5) for both the supernatant and in total cell lysates solubilized with 0.01% Triton X-100 for 90 min at 37° C. The reaction was stopped by adding glycine buffer (pH 10.7). Read absorbance at 405 nm with reference filter at 620 nm. The percent-age of β-hex released into the supernatant was calculated by the β-hex contents of supernatant and cell lysate.

LAD2 cells [3] = assay: β-hex release assay, LAD2 cells on top of hydrogel matrices; type: cell-based, human; settings: matrix composed of pure (RADA)4, compared to PBS
Experimental: as §1
LAD2 (Laboratory of Allergic Diseases 2) human mast cells were incubated in StemPro-34 SFM medium (Life Technologies, Rockville, Md.) supplemented with 2 mM L-glutamine, 100 I/ml penicillin, 50 μg/ml streptomycin, 100 ng/ml recombinant human SCF (Peprotech, Rocky Hill, N.J.). Cells were maintained at 0.1×10^6 cells/ml at 37° C. and 5% CO2. […]
To evaluate the effect of the matrices on degranulation, 0.25×10^5 LAD2 cells in 50 μl HEPES buffer (10 mM, with 0.4% BSA, pH 7.4) were carefully placed on the top of 50 μl hydrogel matrices, and the β-hex release was measured as described. […]

LAD2 cells [4] = assay: Laser-scanning confocal microscopy of LAD2 cells on hydrogel matrices (adhesion, F-actin); type: cell-based, human; settings: 0.5% w/v matrix (pure (RADA)4 or 20% w/w (RADA)4-GG-(PAMP-12))
Experimental: For each sample, 0.25×10^5 LAD2 cells in 50 μl culture medium were allowed to incubate with 50 μl hydrogel matrix for 30 min at 37° C. After incubation, the medium was disposed, and hydrogel matrix was carefully washed by warm PBS for 3 times to remove non-adherent cells. Hydrogel matrices were then fixed in 3.7% paraformaldehyde in PBS for 20 min at room temperature and 3 times washed in PBS. Cells were permeabilized with 0.1% Triton X-100 in PBS for 5 min, washed in PBS for 3 times, then followed by 3% BSA blocking for 30 min and 3 times washing in PBS. To stain F-actin, samples were incubated with 0.5 μM Phalloidin-FITC (Sigma-Aldrich, USA) for 30 minutes and followed by 3 times washing in PBS. Cell nuclei were stained with 1 ug/mL DAPI (Sigma-Aldrich, USA) in PBS for 30 min. After 3 times washing in PBS, Z-slice images of the matrix with adhered LAD2 cells were collected using Laser Scanning Confocal Microscopy (LSM710, Carl Zeizz AG, Oberkochen, Germany) with an inverted 10× objective.

TPSAB1 (tryptase) mRNA = assay: In vitro activation of mast cells in human skin, ddPCR for TPSAB1 expression; settings: human skin without epidermis (NSE), 4 h; 10 μM PAMP-12, pure (RADA)4 matrix or matrix with 20% w/w (RADA)4-GG-(PAMP-12); NS average taken as 100
From the text: Human skin was harvested from abdominoplasty surgical discard specimens obtained following written informed consent as approved by the University of Alberta research ethics board. All tissue was from healthy non-smokers in their 30s. Human skin was separated from the underlying adipose tissue using a 15 blade scalpel. The epidermis was then removed using a […] dermatome (Integra LifeSciences Corporation, Cincinnati, Ohio) set to 0.25 mm thickness. The deepithelialized dermis was then divided into multiple pieces 1 cm^2 using sharp surgical scissors. Control or active hydrogel matrix (100 μl) was then layered onto the exposed surface of the dermis. […] For some groups, PBS and PAMP-12 PBS solution were used as negative and positive control. Following this, tissue pieces were removed and snap frozen in liquid nitrogen and stored at -80° C. until further processing. […] To obtain the absolute quantity of TPSAB1 transcripts, ddPCR (QX100, Bio-Rad, Hercules, Calif.) was employed using 5 ng of each cDNA sample and ddPCR supermix for the specific probes (Bio-Rad) according to manufacturer's protocols. […] QuantaSoft Software (Bio-Rad) was employed to analyze ddPCR results, and the absolute concentration of TPSAB1 transcripts in each sample determined by ddPCR was divided by the ACTB transcripts and presented as percentage based on normal skin samples (NS average taken as 100).

## CC(=O)N[C@@H](CCCNC(=N)N)C(=O)N[C@@H](C)C(=O)N[C@@H](CC(=O)O)C(=O)N[C@@H](C)C(=O)N[C@@H](CCCNC(=N)N)C(=O)N[C@@H](C)C(=O)N[C@@H](CC(=O)O)C(=O)N[C@@H](C)C(=O)N[C@@H](CCCNC(=N)N)C(=O)N[C@@H](C)C(=O)N[C@@H](CC(=O)O)C(=O)N[C@@H](C)C(=O)N[C@@H](CCCNC(=N)N)C(=O)N[C@@H](C)C(=O)N[C@@H](CC(=O)O)C(=O)N[C@@H](C)C(N)=O [(RADA)4, RADARADARADARADA, reference compound]
[1]; 0.5% w/v
  nanostructure morphology: long, evenly distributed, nanofibers
[1]; 0.5% w/v matrix
  nanofiber height (AFM cross section): ~1.5 nm
LAD2 cells [2]
  LAD2 degranulation (β-hex release): not capable of initiating the degranulation
LAD2 cells [3]
  degranulation (β-hex release): did not induce degranulation
LAD2 cells [4]; 2D imaging
  F-actin organization / cell morphology of LAD2 cells: ring shaped, with no obvious lamellipodia and filopodia structures
LAD2 cells [4]; 30 min incubation
  LAD2 cells associated with matrix post-wash: very small number of cells
TPSAB1 (tryptase) mRNA
  TPSAB1 expression level, normalized to ACTB: no significant different
